# PubChem BioAssay AID1671190 (National Center for Advancing Translational Sciences (NCATS), 2021)
# Sequences of proteins named here, by UniProt entry; tags and fusion partners are left off. A change or cut given only in a name is not applied to a line headed by its entry.
# UniProt P18054: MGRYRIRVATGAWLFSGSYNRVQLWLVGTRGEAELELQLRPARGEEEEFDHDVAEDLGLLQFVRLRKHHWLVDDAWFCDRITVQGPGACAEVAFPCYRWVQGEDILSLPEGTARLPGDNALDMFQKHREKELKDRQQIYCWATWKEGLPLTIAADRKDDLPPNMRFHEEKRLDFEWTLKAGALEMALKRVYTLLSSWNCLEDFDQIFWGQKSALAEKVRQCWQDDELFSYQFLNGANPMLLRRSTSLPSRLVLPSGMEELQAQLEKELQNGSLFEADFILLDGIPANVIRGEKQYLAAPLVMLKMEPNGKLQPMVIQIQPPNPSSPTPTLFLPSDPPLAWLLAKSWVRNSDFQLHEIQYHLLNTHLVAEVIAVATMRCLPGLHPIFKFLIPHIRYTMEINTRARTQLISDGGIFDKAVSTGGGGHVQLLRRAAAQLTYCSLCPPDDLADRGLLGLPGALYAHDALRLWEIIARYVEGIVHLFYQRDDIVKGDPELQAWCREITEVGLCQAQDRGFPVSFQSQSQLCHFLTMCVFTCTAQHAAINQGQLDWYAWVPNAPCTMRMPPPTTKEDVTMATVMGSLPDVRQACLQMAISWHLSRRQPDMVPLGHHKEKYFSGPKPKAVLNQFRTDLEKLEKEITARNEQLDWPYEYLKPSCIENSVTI
# The campaign covered roughly 580,000 compounds. About 6,100 (1.1%) were called active. Inconclusive means that the source gave no clear call. Such entries were picked first, then a sample of the others. Calls follow the shape of the dose curve; as a rule, active = well fitted inhibition curve with a large enough effect; inconclusive = small, poorly fitted or top-dose-only effect, or another doubt; inactive = no such curve, though single readings can be large or run the other way. Potencies of inconclusive entries are doubtful fits and often do not repeat.
# Molecular target: Polyunsaturated fatty acid lipoxygenase ALOX12 (Homo sapiens) (UniProt P18054)
# Assay: Primary qHTS assay for inhibitors of human arachidonate 12S-lipoxygenase (ALOX12): Round 2
# Conditions: purified 12hLO, xylenol orange hydroperoxide absorbance; activity change, negative = inhibition: at 108 µM (top of the series) unless noted
# In short: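 Hydroperoxide product was detected by ferrous iron/xylenol orange as the 573 to 405 nm absorbance ratio. Arachidonic acid at 40 uM (final) was turned over for 30 min at room temperature by 150 nM human 12hLO, pH 7.0 Hepes buffer, after 15 min compound preincubation.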
# % is scaled to controls: 0 for no effect and ±100 for the full control effect; potency is read from the fitted curve at half-maximal effect.
Structure (SMILES),"activity change, negative = inhibition",Potency
CCn1cc(S(=O)(=O)N2CCCCCCNC(=O)[C@@H]3CCCC[C@@H]32)cn1,inactive: 18.6%,–
CCOC(=O)c1oc2c(O)c(O)ccc2c(=O)c1-c1nncn1-c1ccccc1,–,"inconclusive: 0.355 µM [inhibitor, full curve, poor fit]"
Cc1ccc2c(c1)c(=O)c(S(=O)(=O)c1ccc(F)cc1)cn2CC(=O)Nc1ccc2c(c1)OCO2,–,"inconclusive: 44.7 µM [inhibitor, partial curve, poor fit]"
O=C(NC1CCCCCCC1)c1cccc(Cl)c1,inactive: -18.5%,–
O=C(c1cc2cc(F)ccc2[nH]1)N1CCc2ccccc2C1,–,"inconclusive: 28.2 µM [inhibitor, partial curve, poor fit]"
COC(=O)c1cccc(S(=O)(=O)N(Cc2ccco2)Cc2cc3ccc(OC)cc3[nH]c2=O)c1,–,"inconclusive: 28.2 µM [inhibitor, partial curve]"
Cc1ccc(-c2nc3ccc(NS(=O)(=O)c4ccccc4)cc3[nH]2)o1,inactive: -25.8% [at 57.4 µM],–
CC(C)(C)C1CCc2c(sc(NC(=O)c3ccccc3F)c2C(=O)N2CCCCC2)C1 (stereo unspecified),–,"inconclusive: 50.1 µM [inhibitor, partial curve, poor fit]"
CC(C)C[C@@H](NC(=O)C1=C[C@@H](NS(=O)(=O)c2cccc(C(F)(F)F)c2)[C@@H](O)[C@H](O)C1)C(N)=O,–,active: 39.8 µM
c1ccc(CNCCN2CCCC2)cc1,–,"inconclusive: 89.1 µM [inhibitor, single point]"
O=C(CCl)N1c2ccccc2Oc2ccc3ccccc3c21,–,"inconclusive: 50.1 µM [inhibitor, partial curve, poor fit]"
Cc1ccc(NC(=S)Nc2cccc(S(=O)(=O)Nc3c(C)n(C)n(-c4ccccc4)c3=O)c2)cc1,–,"inconclusive: 39.8 µM [inhibitor, partial curve, poor fit]"
CC(C)(C)N1CC(C(=O)Nc2ccc(S(N)(=O)=O)cc2)CC1=O (stereo unspecified),inconclusive: -33.9% [inhibitor],–
Cc1ccccc1NS(=O)(=O)c1ccc2c(c1)c(=O)n(CC(=O)N1CCCCCC1)c(=O)n2C,inactive: 3.84%,–
CCCOc1ccc(C(C)NC(=O)c2snnc2CC)cc1OC (stereo unspecified),inactive: 29%,–
C/C(=N/NC(=S)NCc1ccccc1)c1ccc(-c2ccccc2)cc1,–,"inconclusive: 25.1 µM [inhibitor, partial curve, poor fit]"
O=C(Nc1ccccc1F)N1CCCC1c1cccnc1 (stereo unspecified),–,"inconclusive: 44.7 µM [inhibitor, partial curve, poor fit]"
Cc1cccc(COC[C@H](Cc2ccccc2)N2CCN(C(=O)c3ccc(Cl)c(Cl)c3)CCC2=O)c1,–,"inconclusive: 31.6 µM [inhibitor, partial curve, poor fit]"
Cc1ccc(C(=O)N2CCC(N3CCCCCC3=O)CC2)cc1,–,"inconclusive: 112 µM [inhibitor, partial curve, poor fit]"
COc1ccccc1-c1cc(Nc2ccc(F)cc2)ncn1,–,"inconclusive: 44.7 µM [inhibitor, partial curve, poor fit]"
O=C(c1nc(-c2ccc(Cl)cc2)n2c1CCCCC2)N1CCN(c2ccc(F)cc2)CC1,inactive: -17.5%,–

Structure (SMILES),"activity change, negative = inhibition",Potency
Cc1ccc(-n2c(C3CCN(C(=O)c4c(F)cccc4Cl)CC3)n[nH]c2=O)cc1,–,"inconclusive: 44.7 µM [inhibitor, partial curve]"
COc1cc(NS(=O)(=O)c2ccc(C)cc2C)cc2sc(NC(=O)c3ccccc3)nc12,–,"inconclusive: 25.1 µM [inhibitor, partial curve, poor fit]"
Cc1ccc(C)c(C(NC(=O)c2ccccc2)c2cccnc2)c1 (stereo unspecified),inactive: 19.2%,–
COc1ccc2c(COC(=O)CCCN=C3NS(=O)(=O)c4ccccc43)cc(=O)oc2c1,–,"inconclusive: 56.2 µM [inhibitor, partial curve, poor fit]"
Cc1nc2c(c(=O)[nH]1)C(c1cc(F)ccc1F)CC(=O)N2 (stereo unspecified),–,"inconclusive: 50.1 µM [inhibitor, partial curve, poor fit]"
COc1ccc(C)cc1S(=O)(=O)N(CC(=O)Nc1ccc2c(c1)OCCO2)Cc1ccccc1,inactive: 19.4%,–
Cc1cccc(NC(=S)N/N=C/C(C)c2ccccc2)c1C (stereo unspecified),–,"inconclusive: 50.1 µM [inhibitor, partial curve, poor fit]"
CC(C)OC(=O)c1nn2c(C(F)(F)F)cc(-c3ccc(Br)o3)nc2c1Br,–,"inconclusive: 44.7 µM [inhibitor, partial curve]"
C[C@@H]1COc2cc(N3CCCCC3)ccc2S(=O)(=O)N1,–,"inconclusive: 100 µM [inhibitor, single point]"
Cc1ccc2c(c1)NC(SCC(=O)Nc1cccc(C(F)(F)F)c1)=NS2(=O)=O,–,"inconclusive: 79.4 µM [inhibitor, single point]"
CN(C)Cc1nnc(C2CC(NC(=O)c3ccn(C)c(=O)c3)C2)n1C (stereo unspecified),inactive: 7.92%,–
O=C(Nc1ccc(F)cc1)Nc1ccccc1N1CCCCC1,–,"inconclusive: 63.1 µM [inhibitor, partial curve, poor fit]"
O=C(O)c1cc2c(Br)cccc2[nH]1,–,"inconclusive: 50.1 µM [inhibitor, single point]"
CN(C(=O)c1ccc(C(F)(F)F)cc1)C1CCOc2ccccc21 (stereo unspecified),inactive: -10.7% [at 176 µM],–
COc1ccccc1Nc1nc(-c2cccs2)cs1,–,"inconclusive: 56.2 µM [inhibitor, partial curve, poor fit]"
S=c1[nH]c2ccccc2n2cccc12,–,"inconclusive: 1.58 µM [inhibitor, partial curve, poor fit]"
COc1ccccc1Nc1ncc2c(n1)CN(C(=O)c1ccnn1C)CCN2,–,"inconclusive: 112 µM [inhibitor, partial curve, poor fit]"
CCN(CC)c1ccc2cc(-c3nnc(-c4cccc(Cl)c4)o3)c(=O)oc2c1,inactive: 6.52%,–
Cc1ccc(NC(=O)c2ccc3nc(Cc4ccccc4)oc3c2)cc1F,–,"inconclusive: 112 µM [inhibitor, partial curve, poor fit]"
COc1ccc(/C=C(\NC(=O)c2ccccc2)C(=O)OC[C@@H]2CCC[N+]3(C)CCCCC23)cc1OC (stereo partly specified),–,"inconclusive: 50.1 µM [inhibitor, partial curve, poor fit]"

# Entries of single compounds from above.
# O=C(Nc1ccc(F)cc1)Nc1ccccc1N1CCCCC1 in the list: Potency: inconclusive: 63.1 µM [inhibitor, partial curve, poor fit]
# Cc1cccc(NC(=S)N/N=C/C(C)c2ccccc2)c1C (stereo unspecified) in the list: Potency: inconclusive: 50.1 µM [inhibitor, partial curve, poor fit]
# CCN(CC)c1ccc2cc(-c3nnc(-c4cccc(Cl)c4)o3)c(=O)oc2c1 in the list: activity change, negative = inhibition: inactive: 6.52%
